From PMC7465057

Sequences of proteins named here, by UniProt entry; tags and fusion partners are left off.
UniProt P28482: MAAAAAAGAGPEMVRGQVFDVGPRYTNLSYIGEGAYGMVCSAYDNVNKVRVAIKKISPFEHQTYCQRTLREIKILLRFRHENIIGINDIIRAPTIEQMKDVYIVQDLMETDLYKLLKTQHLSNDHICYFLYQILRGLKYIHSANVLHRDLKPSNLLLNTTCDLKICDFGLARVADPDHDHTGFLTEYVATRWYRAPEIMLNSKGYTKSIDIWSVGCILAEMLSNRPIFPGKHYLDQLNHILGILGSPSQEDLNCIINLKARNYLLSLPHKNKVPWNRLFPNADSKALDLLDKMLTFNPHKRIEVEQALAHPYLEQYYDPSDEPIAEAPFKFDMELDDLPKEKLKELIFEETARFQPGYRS

T1: CD83-3×Flag (human CD83, full length, with C-terminal 3×Flag tag) (human) (UniProt Q01151)
T1 sequence: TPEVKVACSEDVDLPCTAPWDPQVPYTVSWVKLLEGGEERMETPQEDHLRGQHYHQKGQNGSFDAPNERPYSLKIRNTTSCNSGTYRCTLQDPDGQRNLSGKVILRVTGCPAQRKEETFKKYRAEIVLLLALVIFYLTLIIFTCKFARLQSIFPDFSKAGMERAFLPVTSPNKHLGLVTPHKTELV


Molecular target: T1, CD83-3×Flag (human CD83, full length, with C-terminal 3×Flag tag) (human)
Experiment: affinity purification with mass spectrometry; CD83-3×Flag-expressing stable cells and control cells lysed, immunoprecipitated with anti-Flag magnetic beads; SDS-PAGE, Coomassie bands excised, in-gel trypsin digestion, LC-MS/MS; at least two peptides

Molecule | binding
MAPK1 (from UniProt P28482 1-360) | binds
MAP2K4 (protein, UniProt P45985 1-399) MAAPSPSGGGGSGGGSGSGTPGPVGSPAPGHPAVSSMQGKRKALKLNFANPPFKSTARFTLNPNPTGVQNPHIERLRTHSIESSGKLKISPEQHWDFTAEDLKDLGEIGRGAYGSVNKMVHKPSGQIMAVKRIRSTVDEKEQKQLLMDLDVVMRSSDCPYIVQFYGALFREGDCWICMELMSTSFDKFYKYVYSVLDDVIPEEILGKITLATVKALNHLKENLKIIHRDIKPSNILLDRSGNIKLCDFGISGQLVDSIAKTRDAGCRPYMAPERIDPSASRQGYDVRSDVWSLGITLYELATGRFPYPKWNSVFDQLTQVVKGDPPQLSNSEEREFSPSFINFVNLCLTKDESKRPKYKELLKHPFILMYEERAVEVACYVCKILDQMPATPSSPMYVD | binds
MAP2K3 (protein, UniProt P46734 1-347) MESPASSQPASMPQSKGKSKRKKDLRISCMSKPPAPNPTPPRNLDSRTFITIGDRNFEVEADDLVTISELGRGAYGVVEKVRHAQSGTIMAVKRIRATVNSQEQKRLLMDLDINMRTVDCFYTVTFYGALFREGDVWICMELMDTSLDKFYRKVLDKNMTIPEDILGEIAVSIVRALEHLHSKLSVIHRDVKPSNVLINKEGHVKMCDFGISGYLVDSVAKTMDAGCKPYMAPERINPELNQKGYNVKSDVWSLGITMIEMAILRFPYESWGTPFQQLKQVVEEPSPQLPADRFSPEFVDFTAQCLRKNPAERMSYLELMEHPFFTLHKTKKTDIAAFVKEILGEDS | binds
TGF-beta activated kinase 1 (MAP3K7) binding protein 1 (TAB1) (protein, UniProt Q15750 1-504) MAAQRRSLLQSEQQPSWTDDLPLCHLSGVGSASNRSYSADGKGTESHPPEDSWLKFRSENNCFLYGVFNGYDGNRVTNFVAQRLSAELLLGQLNAEHAEADVRRVLLQAFDVVERSFLESIDDALAEKASLQSQLPEGVPQHQLPPQYQKILERLKTLEREISGGAMAVVAVLLNNKLYVANVGTNRALLCKSTVDGLQVTQLNVDHTTENEDELFRLSQLGLDAGKIKQVGIICGQESTRRIGDYKVKYGYTDIDLLSAAKSKPIIAEPEIHGAQPLDGVTGFLVLMSEGLYKALEAAHGPGQANQEIAAMIDTEFAKQTSLDAVAQAVVDRVKRIHSDTFASGGERARFCPRHEDMTLLVRNFGYPLGEMSQPTPSPAPAAGGRVYPVSVPYSSAQSTSKTSVTLSLVMPSQGQMVNGAHSASTLDEATPTLTNQSPTLTLQSTNTHTQSSSSSSDGGLFRSRPAHSLPPGEDGRVEPYVDFAEFYRLWSVDHGEQSVVTAP | binds

Now from value to molecule:

binding | Molecule
binds | mitogen-activated protein kinase kinase kinase 7 (MAP3K7) (protein, UniProt O43318 1-606) MSTASAASSSSSSSAGEMIEAPSQVLNFEEIDYKEIEVEEVVGRGAFGVVCKAKWRAKDVAIKQIESESERKAFIVELRQLSRVNHPNIVKLYGACLNPVCLVMEYAEGGSLYNVLHGAEPLPYYTAAHAMSWCLQCSQGVAYLHSMQPKALIHRDLKPPNLLLVAGGTVLKICDFGTACDIQTHMTNNKGSAAWMAPEVFEGSNYSEKCDVFSWGIILWEVITRRKPFDEIGGPAFRIMWAVHNGTRPPLIKNLPKPIESLMTRCWSKDPSQRPSMEEIVKIMTHLMRYFPGADEPLQYPCQYSDEGQSNSATSTGSFMDIASTNTSNKSDTNMEQVPATNDTIKRLESKLLKNQAKQQSESGRLSLGASRGSSVESLPPTSEGKRMSADMSEIEARIAATTAYSKPKRGHRKTASFGNILDVPEIVISGNGQPRRRSIQDLTVTGTEPGQVSSRSSSPSVRMITTSGPTSEKPTRSHPWTPDDSTDTNGSDNSIPMAYLTLDHQLQPLAPCPNSKESMAVFEQHCKMAQEYMKVQTEIALLLQRKQELVAELDQDEKDQQNTSRLVQEHKKLLDENKSLSTYYQQCKKQLEVIRSQQQKRQGTS
binds | TGF-beta activated kinase 1 (MAP3K7) binding protein 3 (TAB3) (protein, UniProt Q8N5C8 1-712) MAQSSPQLDIQVLHDLRQRFPEIPEGVVSQCMLQNNNNLEACCRALSQESSKYLYMEYHSPDDNRMNRNRLLHINLGIHSPSSYHPGDGAQLNGGRTLVHSSSDGHIDPQHAAGKQLICLVQEPHSAPAVVAATPNYNPFFMNEQNRSAATPPSQPPQQPSSMQTGMNPSAMQGPSPPPPPPSYMHIPRYSTNPITVTVSQNLPSGQTVPRALQILPQIPSNLYGSPGSIYIRQTSQSSSGRQTPQSTPWQSSPQGPVPHYSQRPLPVYPHQQNYQPSQYSPKQQQIPQSAYHSPPPSQCPSPFSSPQHQVQPSQLGHIFMPPSPSTTPPHPYQQGPPSYQKQGSHSVAYLPYTASSLSKGSMKKIEITVEPSQRPGTAINRSPSPISNQPSPRNQHSLYTATTPPSSSPSRGISSQPKPPFSVNPVYITYTQPTGPSCTPSPSPRVIPNPTTVFKITVGRATTENLLNLVDQEERSAAPEPIQPISVIPGSGGEKGSHKYQRSSSSGSDDYAYTQALLLHQRARMERLAKQLKLEKEELERLKSEVNGMEHDLMQRRLRRVSCTTAIPTPEEMTRLRSMNRQLQINVDCTLKEVDLLQSRGNFDPKAMNNFYDNIEPGPVVPPKPSKKDSSDPCTIERKARRISVTSKVQADIHDTQAAAADEHRTGSTQSPRTQPRDEDYEGAPWNCDSCTFLNHPALNRCEQCEMPRYT
binds | TGF-beta activated kinase 1 (MAP3K7) binding protein 2 (TAB2) (protein, UniProt Q9NYJ8 1-693) MAQGSHQIDFQVLHDLRQKFPEVPEVVVSRCMLQNNNNLDACCAVLSQESTRYLYGEGDLNFSDDSGISGLRNHMTSLNLDLQSQNIYHHGREGSRMNGSRTLTHSISDGQLQGGQSNSELFQQEPQTAPAQVPQGFNVFGMSSSSGASNSAPHLGFHLGSKGTSSLSQQTPRFNPIMVTLAPNIQTGRNTPTSLHIHGVPPPVLNSPQGNSIYIRPYITTPGGTTRQTQQHSGWVSQFNPMNPQQVYQPSQPGPWTTCPASNPLSHTSSQQPNQQGHQTSHVYMPISSPTTSQPPTIHSSGSSQSSAHSQYNIQNISTGPRKNQIEIKLEPPQRNNSSKLRSSGPRTSSTSSSVNSQTLNRNQPTVYIAASPPNTDELMSRSQPKVYISANAATGDEQVMRNQPTLFISTNSGASAASRNMSGQVSMGPAFIHHHPPKSRAIGNNSATSPRVVVTQPNTKYTFKITVSPNKPPAVSPGVVSPTFELTNLLNHPDHYVETENIQHLTDPTLAHVDRISETRKLSMGSDDAAYTQALLVHQKARMERLQRELEIQKKKLDKLKSEVNEMENNLTRRRLKRSNSISQIPSLEEMQQLRSCNRQLQIDIDCLTKEIDLFQARGPHFNPSAIHNFYDNIGFVGPVPPKPKDQRSIIKTPKTQDTEDDEGAQWNCTACTFLNHPALIRCEQCEMPRHF

No constants are given. Whether binding was seen depends on the method and setting. In cells and extracts the contact can be indirect. A yes stands for co-enrichment or nearness to the bait. Other partners may have been found. Sequences can lack the tags named with a protein.
